{
  "source": "patent US20200352184A1",
  "about": "“Prevention of Postharvest Physiological Deterioration using Sulfur-Donating Compounds” (Apeel Technology, Inc., priority 2017, published 2020)",
  "key": {"cassava roots [1]": {"tested_on": "cassava roots", "conditions": "powder dip, average of 10 cassava segments, FIG. 5"}, "cassava roots [2]": {"tested_on": "cassava roots", "conditions": "after four days, dry powder dip of cut surface, FIG. 2"}},
  "note": "Read-outs that look alike come from different tables or passages of the source.",
  "data": [
    {"smiles": "O.O.O.O.O.O=S([O-])([O-])=S.[Na+].[Na+]", "note": "[sodium thiosulfate, sodium thiosulfate pentahydrate]", "values": [
      {"measurement": "total starch lost", "setting": "cassava roots [1]; day 4 postharvest", "result": "about 6%"},
      {"measurement": "total starch lost", "setting": "cassava roots [1]; day 4 postharvest, listed as sodium thiosulfate pentahydrate", "result": 6, "unit": "%"},
      {"measurement": "total starch lost", "setting": "cassava roots [1]; day 8 postharvest", "result": "less than 8%"},
      {"measurement": "discoloration (PPD) of treated cut cassava root sections versus untreated", "setting": "cassava roots [2]", "result": "largely free of such discoloration"},
      {"measurement": "discoloration (PPD) of treated cut cassava root sections versus untreated", "setting": "cassava roots [2]; listed as sodium thiosulfate pentahydrate", "result": "considerably less discoloration"}
    ]}
  ]
}
